The subject of data set [1] is PrimeSTAR GXL DNA polymerase. Put plainly: EMSA. The following applies: no Mg2+; 10 mM Tris-HCl pH 7.9, 50 mM KCl, 1 mM EDTA, 5% glycerol, 1 mM DTT, 25 ug/ml BSA; no MgCl2, no poly(dI-dC); 20 min at room temperature; 6% PAGE in 0.5X TBE; commercial protein; label: 5' biotin; single-stranded DNA.
In data set [2] the test system is Q5 High-Fidelity DNA polymerase. Put plainly: EMSA. Particulars: no Mg2+; 10 mM Tris-HCl pH 7.9, 50 mM KCl, 1 mM EDTA, 5% glycerol, 1 mM DTT, 25 ug/ml BSA; no MgCl2, no poly(dI-dC); 20 min at room temperature; 6% PAGE in 0.5X TBE; commercial protein; protein details: Sso7d fusion; label: 5' biotin; single-stranded DNA.

The values that follow come from paper PMC5792436.

Construct, isoform or probe ends are uncertain for at least one entry.

Regarding “TACCGAGCTCTTACGCGTGCCTCTGACTTGCCTCAGAGC [Bio-Olig2.5]”, the binding result in data set [1] and in data set [2] was “binds” throughout.
